Measurements reported in PubChem BioAssay AID1508597 (Cure First, 2020).
This is a random part of the about 2,100 reagents, under one of the conditions tested. 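Calls flag viability under 80% in either arm, not effects specific to rucaparib; the reference for percent is not stated.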 A reagent listed more than once was tested more than once; the source does not tell the runs apart. No sequences are given here. Not given: the 100% reference.

- Purpose: 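Survival screen with siRNA in ovarian cancer cells derived from patients, with or without rucaparib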 (primary screen)
- Cells: human ovarian carcinoma lines grown from tumours: OCI-P5x (papillary serous) and OCI-C5x (clear cell)
- Knock-down reagent: siRNA pool against human genes, 1.25 pmol siRNA per well
- Time to read-out: 72 h or 96 h, depending on the cell culture
- Treatment: rucaparib 20 µM (about IC30) or vehicle, present until read-out
- Rucaparib or vehicle: Vehicle
- Cell line: OCI-P5x (serous)
- Read-out: 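ATP luminescence measured at 72 or 96 h according to the culture, then normalised and expressed as percent viability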
- Scale: viability, normalised: higher = more viable cells remaining
- Active means: 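a well counts as a hit if its normalised viability is under 80 percent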
- Meaning of the calls: active = viability under 80%; inactive = viability 80% or more

gene symbol | PubChem SID | technical replicate | viability, normalised (%) | activity call
CDK3 (cyclin dependent kinase 3) | SID405527515 | 1 | 106 | inactive
CDK3 (cyclin dependent kinase 3) | SID405527515 | 2 | 97.6 | inactive
CDK3 (cyclin dependent kinase 3) | SID405527515 | 3 | 107 | inactive
RMI1 (RecQ mediated genome instability 1) | SID405528378 | 1 | 106 | inactive
RMI1 (RecQ mediated genome instability 1) | SID405528378 | 2 | 86.4 | inactive
RMI1 (RecQ mediated genome instability 1) | SID405528378 | 3 | 92.5 | inactive
PLK1 (polo like kinase 1) | SID405527168 | 1 | 33.7 | active
PLK1 (polo like kinase 1) | SID405527168 | 2 | 31.9 | active
PLK1 (polo like kinase 1) | SID405527168 | 3 | 55.7 | active
PIK3C2A | SID405527475 | 1 | 80.2 | inactive
PIK3C2A | SID405527475 | 2 | 97.3 | inactive
PIK3C2A | SID405527475 | 3 | 105 | inactive
CXXC4 (CXXC finger protein 4) | SID405528158 | 1 | 66.3 | active
CXXC4 (CXXC finger protein 4) | SID405528158 | 2 | 87.7 | inactive
CXXC4 (CXXC finger protein 4) | SID405528158 | 3 | 70.3 | active
CERKL (CERK like autophagy regulator) | SID405527915 | 1 | 67.5 | active
CERKL (CERK like autophagy regulator) | SID405527915 | 2 | 66.9 | active
CERKL (CERK like autophagy regulator) | SID405527915 | 3 | 54.2 | active
TLK1 (tousled like kinase 1) | SID405526564 | 1 | 76.5 | active
TLK1 (tousled like kinase 1) | SID405526564 | 1 | 81 | inactive
TLK1 (tousled like kinase 1) | SID405526564 | 2 | 93.1 | inactive
TLK1 (tousled like kinase 1) | SID405526564 | 2 | 91.1 | inactive
TLK1 (tousled like kinase 1) | SID405526564 | 3 | 82.9 | inactive
TLK1 (tousled like kinase 1) | SID405526564 | 3 | 80.6 | inactive
SIRT2 (sirtuin 2) | SID405527300 | 1 | 58 | active
SIRT2 (sirtuin 2) | SID405527300 | 2 | 67.4 | active
SIRT2 (sirtuin 2) | SID405527300 | 3 | 74.2 | active
ELOA3P (elongin A3, pseudogene) | SID405527464 | 1 | 70.6 | active
ELOA3P (elongin A3, pseudogene) | SID405527464 | 2 | 71.6 | active
ELOA3P (elongin A3, pseudogene) | SID405527464 | 3 | 76 | active
NAP1L5 (nucleosome assembly protein 1 like 5) | SID405527060 | 1 | 49.7 | active
NAP1L5 (nucleosome assembly protein 1 like 5) | SID405527060 | 2 | 45.9 | active
NAP1L5 (nucleosome assembly protein 1 like 5) | SID405527060 | 3 | 83.8 | inactive
CTNNB1 (catenin beta 1) | SID405528154 | 1 | 49.1 | active
CTNNB1 (catenin beta 1) | SID405528154 | 2 | 75.8 | active
CTNNB1 (catenin beta 1) | SID405528154 | 3 | 66.7 | active
PAK4 (p21 (RAC1) activated kinase 4) | SID405527568 | 1 | 106 | inactive
PAK4 (p21 (RAC1) activated kinase 4) | SID405527568 | 2 | 90.8 | inactive
PAK4 (p21 (RAC1) activated kinase 4) | SID405527568 | 3 | 106 | inactive

4 of these entries, reformatted.
{"gene symbol":"NAP1L5 (nucleosome assembly protein 1 like 5)","PubChem SID":"SID405527060","technical replicate":"1","viability, normalised (%)":49.7,"activity call":"active"}
{"gene symbol":"NAP1L5 (nucleosome assembly protein 1 like 5)","PubChem SID":"SID405527060","technical replicate":"2","viability, normalised (%)":45.9,"activity call":"active"}
{"gene symbol":"NAP1L5 (nucleosome assembly protein 1 like 5)","PubChem SID":"SID405527060","technical replicate":"3","viability, normalised (%)":83.8,"activity call":"inactive"}
{"gene symbol":"CTNNB1 (catenin beta 1)","PubChem SID":"SID405528154","technical replicate":"1","viability, normalised (%)":49.1,"activity call":"active"}
